# Source: US5547938A, “Therapeutic agent for digestive tract diseases using glicentin” (Nisshin Flour Milling Co., Ltd., priority 1993, dated 1996)
# Test system: intestinal mucosae
# Assay: Example 1: nutritional (trophic) effect of glicentin on the intestinal mucosae of rats fed an elemental nutrition
# Assay type: in vivo, rat
# Details: 10 μg glicentin s.c. every 12 hours for 7 days
# Experimental: An experiment was performed in male SD rats weighing 140-160 g which had been fed on standard food under light-dark condition of a cycle of 12 hours. The food which was replaced by an elemental nutrition (Elental®, Morishita-Roussel Japan) was taken ad lib., and remained unchanged until the experiment was finished. After feeding on the component nutrition for 3 days, administration of glicentin prepared as described below was started.
# Gelatin was dissolved in warm water to a weight ratio of 16%, and the solution autoclaved and cooled to room temperature. To 40 ml of the gelatin solution was added a solution of 1 mg of glicentin in 10 ml of distilled water with stirring at room temperature. The mixture was divided into test tubes, freeze dried and stored for use.
# The gelatin solution was subcutaneously given at a dose of 10 μg per glicentin every 12 hours for 7 days to examine a nutritional effect of glicentin on the intestinal mucosae. A similar gelatin solution containing no glicentin was given for the same period of time as a control for comparison. […]
# The tissues fixed in the formalin solution were embedded in paraffin to form a preparation which was stained with hematoxylin-eosin and measured for height of the villi using an optical microscope.
molecule,measurement,value
"Glicentin: Enteroglucagon peptide comprising 69 amino acid residues (SEQ ID NO:1), prepared by genetic engineering procedure (protein) RSLQDTEEKSRSFSASQADPLSDPDQMNEDKRHSQGTFTSDYSKYLDSRRAQDFVQWLMNTKRNRNNIA",Bodyweight after administration,180.8 ± 5.3
